Measured values from publication PMC10693155.
No constants are given. Whether binding was seen depends on the method and setting. In cells and extracts the contact can be indirect. Some entries that bind do so weakly or less than the wild type.

Amino acid sequences for entries named in this document (tags omitted).
UniProt Q86TM6: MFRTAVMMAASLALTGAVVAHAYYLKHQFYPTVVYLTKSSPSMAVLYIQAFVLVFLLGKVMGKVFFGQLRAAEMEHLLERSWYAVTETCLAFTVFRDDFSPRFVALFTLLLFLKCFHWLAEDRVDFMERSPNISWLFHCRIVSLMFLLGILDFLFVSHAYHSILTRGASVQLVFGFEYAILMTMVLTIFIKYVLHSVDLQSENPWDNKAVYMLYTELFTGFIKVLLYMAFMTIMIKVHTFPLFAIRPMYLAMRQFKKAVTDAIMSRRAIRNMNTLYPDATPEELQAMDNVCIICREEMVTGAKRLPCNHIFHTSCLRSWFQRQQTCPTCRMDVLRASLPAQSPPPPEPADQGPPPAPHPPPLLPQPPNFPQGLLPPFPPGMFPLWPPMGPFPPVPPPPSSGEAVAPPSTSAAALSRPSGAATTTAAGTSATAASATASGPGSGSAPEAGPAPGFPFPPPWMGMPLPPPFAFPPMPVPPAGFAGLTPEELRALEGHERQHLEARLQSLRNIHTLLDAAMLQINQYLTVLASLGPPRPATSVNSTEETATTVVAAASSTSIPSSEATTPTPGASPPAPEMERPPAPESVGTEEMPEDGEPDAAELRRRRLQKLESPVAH

Molecular target: T1, SIRT2 (Sirtuin 2) (human (endogenous in BEAS-2B)) (UniProt Q8IXJ6)
T1 sequence: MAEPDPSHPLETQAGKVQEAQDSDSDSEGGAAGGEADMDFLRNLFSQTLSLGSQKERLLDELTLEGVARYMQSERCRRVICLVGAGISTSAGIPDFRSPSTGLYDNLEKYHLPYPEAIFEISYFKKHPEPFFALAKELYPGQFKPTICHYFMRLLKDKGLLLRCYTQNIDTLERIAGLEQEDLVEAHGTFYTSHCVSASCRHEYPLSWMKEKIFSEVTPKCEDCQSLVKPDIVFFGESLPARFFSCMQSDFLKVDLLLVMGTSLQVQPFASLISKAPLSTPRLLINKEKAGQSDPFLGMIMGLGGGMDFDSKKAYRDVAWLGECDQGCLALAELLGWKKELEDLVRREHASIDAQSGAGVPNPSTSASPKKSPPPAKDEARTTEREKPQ
Assay: co-IP; Pierce Co-IP kit; BEAS-2B cells pretreated with 10 µM MG132 for 6 h, lysed in immunoprecipitation buffer; SIRT2 antibody immobilised on AminoLink Plus Coupling Resin; Western blot for SYVN1; cells with or without TGF-β1 treatment

binding: binds
Substance: SYVN1 (Synoviolin 1) (from UniProt Q86TM6 1-617)
